A short description of this data set: general procedure: solution-phase peptide synthesis; HATU/DIPEA. As to conditions: coupling step.
“(S)-2-((R)-2-(Dimethylamino)-3-methylbutanamido)-N-((3R,4S,5S)-1-((S)-2-((1R,2R)-3-(3-(3-fluorophenyl)azetidin-1-yl)-1-methoxy-2-methyl-3-oxopropyl)pyrrolidin-1-yl)-3-methoxy-5-methyl-1-oxoheptan-4-yl)-N,3-dimethylbutanamide” came in with a step yield of 54%. As to “(S)-N-((3R,4S,5S)-1-((S)-2-((1R,2R)-3-(3-(3-Chloro-4-fluorophenyl)azetidin-1-yl)-1-methoxy-2-methyl-3-oxopropyl)pyrrolidin-1-yl)-3-methoxy-5-methyl-1-oxoheptan-4-yl)-2-((R)-2-(dimethylamino)-3-methylbutanamido)-N,3-dimethylbutanamide”, the step yield turned out to be 44%. In turn, “(S)-2-((R)-2-(Dimethylamino)-3-methylbutanamido)-N-((3R,4S,5S)-3-methoxy-1-((S)-2-((1R,2R)-1-methoxy-2-methyl-3-oxo-3-(3-phenylazetidin-1-yl)propyl)pyrrolidin-1-yl)-5-methyl-1-oxoheptan-4-yl)-N,3-dimethylbutanamide” registered a step yield of 45%. As for “(S)-N-((3R,4S,5S)-1-((S)-2-((1R,2R)-3-(3-(4-Chlorophenyl)azetidin-1-yl)-1-methoxy-2-methyl-3-oxopropyl)pyrrolidin-1-yl)-3-methoxy-5-methyl-1-oxoheptan-4-yl)-2-((R)-2-(dimethylamino)-3-methylbutanamido)-N,3-dimethylbutanamide”, the figure is 66%. “(S)-2-((R)-2-(Dimethylamino)-3-methylbutanamido)-N-((3R,4S,5S)-1-((S)-2-((1R,2R)-3-(3-(2-fluorophenyl)azetidin-1-yl)-1-methoxy-2-methyl-3-oxopropyl)pyrrolidin-1-yl)-3-methoxy-5-methyl-1-oxoheptan-4-yl)-N,3-dimethylbutanamide” displayed a step yield of 40%. As for “(S)-2-((R)-2-(Dimethylamino)-3-methylbutanamido)-N-((3R,4S,5S)-1-((S)-2-((1R,2R)-3-(3-(2-isopropylphenyl)azetidin-1-yl)-1-methoxy-2-methyl-3-oxopropyl)pyrrolidin-1-yl)-3-methoxy-5-methyl-1-oxoheptan-4-yl)-N,3-dimethylbutanamide”, the figure is 48%; as for “(S)-N-((3R,4S,5S)-1-((S)-2-((1R,2R)-3-(3-([1,1′-Biphenyl]-4-yl)azetidin-1-yl)-1-methoxy-2-methyl-3-oxopropyl)pyrrolidin-1-yl)-3-methoxy-5-methyl-1-oxoheptan-4-yl)-2-((R)-2-(dimethylamino)-3-methylbutanamido)-N,3-dimethylbutanamide”, 70%; as for “(S)-N-((3R,4S,5S)-1-((S)-2-((1R,2R)-3-(3-(4-(tert-Butyl)phenyl)azetidin-1-yl)-1-methoxy-2-methyl-3-oxopropyl)pyrrolidin-1-yl)-3-methoxy-5-methyl-1-oxoheptan-4-yl)-2-((R)-2-(dimethylamino)-3-methylbutanamido)-N,3-dimethylbutanamide”, 35%. As for “(S)-N-((3R,4S,5S)-1-((S)-2-((1R,2R)-3-(3-(4-Chloro-2-methoxyphenyl)azetidin-1-yl)-1-methoxy-2-methyl-3-oxopropyl)pyrrolidin-1-yl)-3-methoxy-5-methyl-1-oxoheptan-4-yl)-2-((R)-2-(dimethylamino)-3-methylbutanamido)-N,3-dimethylbutanamide”, the figure is 45%.
